Test results published in the supplement of paper PMC4604168 (melanoma cell lines).
This is one part of the list. Many values rest on one well or one pass, so single values are uncertain.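 Cells were imaged in 1,536-well plates, and nuclei stained with an antibody against cleaved PARP were counted against all DNA-stained nuclei to give the apoptosis fraction. Screening doses were chosen to leave most cells alive, and resting and induced cleaved-PARP levels differ strongly between cell lines.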

Legend:
Assay in all cases: cleaved PARP positive nuclei fraction relative to DMSO control; melanoma cells; higher = more apoptosis
Details in all cases: library dose: low library concentration; 72 h
501Mel = tested on: 501Mel
A101D = tested on: A101D
A2058 = tested on: A2058
A375 = tested on: A375
C32 = tested on: C32
CBRC008 = tested on: CBRC008 (line from a melanoma biopsy)
CBRC014 = tested on: CBRC014 (line from a melanoma biopsy)
CBRC016 = tested on: CBRC016 (line from a melanoma biopsy)
CBRC017 = tested on: CBRC017 (line from a melanoma biopsy)
CBRC034 = tested on: CBRC034 (line from a melanoma biopsy)
COLO792 = tested on: COLO792
COLO800 = tested on: COLO800
COLO829 = tested on: COLO829
G361 = tested on: G361
IPC-298 = tested on: IPC-298
IST-MEL1 = tested on: IST-MEL1
LB2518-MEL = tested on: LB2518-MEL
LOXIMVI = tested on: LOXIMVI
MEL-HO = tested on: MEL-HO

Row | Structure (SMILES) | cleaved PARP positive nuclei fraction (501Mel) [%] | cleaved PARP positive nuclei fraction (A101D) [%] | cleaved PARP positive nuclei fraction (A2058) [%] | cleaved PARP positive nuclei fraction (A375) [%] | cleaved PARP positive nuclei fraction (C32) [%] | cleaved PARP positive nuclei fraction (CBRC008) [%] | cleaved PARP positive nuclei fraction (CBRC014) [%] | cleaved PARP positive nuclei fraction (CBRC016) [%] | cleaved PARP positive nuclei fraction (CBRC017) [%] | cleaved PARP positive nuclei fraction (CBRC034) [%] | cleaved PARP positive nuclei fraction (COLO792) [%] | cleaved PARP positive nuclei fraction (COLO800) [%] | cleaved PARP positive nuclei fraction (COLO829) [%] | cleaved PARP positive nuclei fraction (G361) [%] | cleaved PARP positive nuclei fraction (IPC-298) [%] | cleaved PARP positive nuclei fraction (IST-MEL1) [%] | cleaved PARP positive nuclei fraction (LB2518-MEL) [%] | cleaved PARP positive nuclei fraction (LOXIMVI) [%] | cleaved PARP positive nuclei fraction (MEL-HO) [%]
1 | CN1CCN(c2ccc3nc(-c4c(N)c5c(F)cccc5[nH]c4=O)[nH]c3c2)CC1 [Dovitinib] + CCCS(=O)(=O)Nc1ccc(F)c(C(=O)c2c[nH]c3ncc(Cl)cc23)c1F [PLX4720] (first compound 0.1 µM, partner dose 0.08 µM) | 59.9 | 104 | 119 | 360 | 150 | 110 | 101 | 85.9 | 117 | 47.6 | 106 | 67.9 | 50.2 | 59.9 | 66 | 70.1 | 113 | 24.3 | 70.6
2 | Nc1ncn([C@H]2C[C@H](O)[C@@H](CO)O2)c(=O)n1 [decitabine] + Cc1nc(Nc2ncc(C(=O)Nc3c(C)cccc3Cl)s2)cc(N2CCN(CCO)CC2)n1 [dasatanib] (first compound 0.1 µM, partner dose 0.004 µM) | 101 | 109 | 198 | 75.9 | 286 | 138 | 125 | 66.6 | 143 | 535 | 235 | 239 | 139 | 161 | 143 | 104 | 64.2 | 203 | 105
3 | O=C(O)c1ccc2c(c1)nc(Nc1cccc(Cl)c1)c1ccncc12 + C=CCNC1=C2C[C@@H](C)C[C@H](OC)[C@H](O)[C@@H](C)/C=C(\C)[C@H](OC(N)=O)[C@@H](OC)/C=C\C=C(/C)C(=O)NC(=CC1=O)C2=O [Tanespimycin] (first compound 0.4 µM, partner dose 0.002 µM) | 81.7 | 62.7 | 225 | 99 | 73.3 | 376 | 144 | 304 | 319 | 266 | 96.2 | 70.2 | 97.2 | 92.1 | 29.9 | 188 | 87.6 | 244 | 125
4 | CNC(=O)c1cc(Oc2ccc(NC(=O)Nc3ccc(Cl)c(C(F)(F)F)c3)cc2)ccn1 [sorafenib] + CS(=O)(=O)CCNCc1ccc(-c2ccc3ncnc(Nc4ccc(OCc5cccc(F)c5)c(Cl)c4)c3c2)o1 [lapatinib] (first compound 0.4 µM, partner dose 0.8 µM) | 101 | 80.7 | 139 | 247 | 73.5 | 167 | 122 | 70 | 136 | 37.6 | 82.9 | 164 | 63.4 | 113 | 94.1 | 85.7 | 110 | 77.8 | 116
5 | CNC(=O)c1cc(Oc2ccc(NC(=O)Nc3ccc(Cl)c(C(F)(F)F)c3)cc2)ccn1 [sorafenib] + C[C@]1(c2nc3c(C(N)=O)cccc3[nH]2)CCCN1 [Veliparib] (first compound 0.4 µM, partner dose 1.4 µM) | 81.5 | 119 | 174 | 88.4 | 183 | 26.2 | 81.4 | 88.4 | 111 | 103 | 68.2 | 99.8 | 130 | 67.9 | 60 | 99.2 | 49.7 | 60.6 | 230
6 | Cn1c(=O)n(-c2ccc(C(C)(C)C#N)cc2)c2c3cc(-c4cnc5ccccc5c4)ccc3ncc21 + CC(=O)c1c(C)c2cnc(Nc3ccc(N4CCNCC4)cn3)nc2n(C2CCCC2)c1=O [palbociclib] (first compound 0.004 µM, partner dose 0.04 µM) | 148 | 134 | 67 | 453 | 105 | 97.8 | 117 | 134 | 137 | 136 | 144 | 89.5 | 168 | 84.1 | 104 | 98.5 | 150 | 142 | 59.8
7 | CS(=O)(=O)CCNCc1ccc(-c2ccc3ncnc(Nc4ccc(OCc5cccc(F)c5)c(Cl)c4)c3c2)o1 [lapatinib] + C#Cc1cccc(Nc2ncnc3cc(OCCOC)c(OCCOC)cc23)c1 [erlotinib] (first compound 0.8 µM, partner dose 0.8 µM) | 173 | 447 | 30.1 | 52 | 85.9 | 248 | 90.7 | 60 | 117 | 72.5 | 113 | 138 | 124 | 77.3 | 97.9 | 66.3 | 117 | 103 | 116
8 | CC(C)C[C@H](NC(=O)[C@H](Cc1ccccc1)NC(=O)c1cnccn1)B(O)O [Bortezomib] + C[C@@H](Oc1cc(-c2cnn(C3CCNCC3)c2)cnc1N)c1c(Cl)ccc(F)c1Cl [Crizotinib] (first compound 0.001 µM, partner dose 0.2 µM) | 414 | 625 | 108 | 257 | 92.7 | 709 | 189 | 952 | 213 | 605 | 15.2 | 136 | 309 | 3330 | 126 | 52.4 | 798 | 74.9 | 184
9 | C[C@@H](Oc1cc(-c2cnn(C3CCNCC3)c2)cnc1N)c1c(Cl)ccc(F)c1Cl [Crizotinib] + Cn1c(Nc2ccc(C(F)(F)F)cc2)nc2cc(Oc3ccnc(-c4ncc(C(F)(F)F)[nH]4)c3)ccc21 [CHIR265] (first compound 0.2 µM, partner dose 0.08 µM) | 91.1 | 93.8 | 137 | 88.7 | 91.5 | 150 | 99.1 | 76.8 | 115 | 159 | 288 | 131 | 102 | 22.3 | 107 | 65.7 | 143 | 81.4 | 95.7
10 | CS(=O)(=O)CCNCc1ccc(-c2ccc3ncnc(Nc4ccc(OCc5cccc(F)c5)c(Cl)c4)c3c2)o1 [lapatinib] + Nc1ncn([C@H]2C[C@H](O)[C@@H](CO)O2)c(=O)n1 [decitabine] (first compound 0.8 µM, partner dose 0.1 µM) | 196 | 355 | 143 | 21.2 | 70.7 | 97.3 | 99.9 | 71.9 | 119 | 36.6 | 150 | 79 | 70.6 | 120 | 61.3 | 45.7 | 103 | 53.2 | 94.9
11 | Cn1c(=O)n(-c2ccc(C(C)(C)C#N)cc2)c2c3cc(-c4cnc5ccccc5c4)ccc3ncc21 + C[C@@H](Oc1cc(-c2cnn(C3CCNCC3)c2)cnc1N)c1c(Cl)ccc(F)c1Cl [Crizotinib] (first compound 0.004 µM, partner dose 0.2 µM) | 159 | 58.6 | 79.8 | 210 | 132 | 64.5 | 101 | 100 | 109 | 66.6 | 53.4 | 142 | 83.4 | 229 | 81.9 | 71.8 | 61.1 | 85.2 | 173
12 | Nc1ncn([C@H]2C[C@H](O)[C@@H](CO)O2)c(=O)n1 [decitabine] + CC(=O)c1c(C)c2cnc(Nc3ccc(N4CCNCC4)cn3)nc2n(C2CCCC2)c1=O [palbociclib] (first compound 0.1 µM, partner dose 0.04 µM) | 67.1 | 182 | 178 | 61.5 | 76.9 | 41.2 | 109 | 113 | 132 | 91.4 | 97.7 | 64.7 | 124 | 236 | 133 | 96 | 134 | 39.5 | 141
13 | CN1CCN(c2ccc3nc(-c4c(N)c5c(F)cccc5[nH]c4=O)[nH]c3c2)CC1 [Dovitinib] + C#Cc1cccc(Nc2ncnc3cc(OCCOC)c(OCCOC)cc23)c1 [erlotinib] (first compound 0.1 µM, partner dose 0.8 µM) | 76.5 | 91.9 | 128 | 95.6 | 69.4 | 177 | 89.8 | 81.1 | 135 | 135 | 79 | 144 | 95 | 127 | 42.1 | 64.1 | 119 | 168 | 161
14 | Cn1c(=O)n(-c2ccc(C(C)(C)C#N)cc2)c2c3cc(-c4cnc5ccccc5c4)ccc3ncc21 + Nc1nc(F)nc2c1ncn2[C@@H]1O[C@H](CO)[C@@H](O)[C@@H]1O [fludarabine] (first compound 0.004 µM, partner dose 0.2 µM) | 12000 | 310 | 22.5 | 4730 | 81.6 | 91.5 | 95.5 | 87.7 | 109 | 67.9 | 120 | 103 | 136 | 128 | 96.8 | 182 | 103 | 274 | 22.2
15 | CC(C)C[C@H](NC(=O)[C@H](Cc1ccccc1)NC(=O)c1cnccn1)B(O)O [Bortezomib] + C#Cc1cccc(Nc2ncnc3cc(OCCOC)c(OCCOC)cc23)c1 [erlotinib] (first compound 0.001 µM, partner dose 0.8 µM) | 272 | 866 | 359 | 113 | 88.4 | 964 | 260 | 428 | 719 | 452 | 39.4 | 178 | 213 | 6040 | 193 | 90.9 | 258 | 293 | 63
16 | C[C@@H](Oc1cc(-c2cnn(C3CCNCC3)c2)cnc1N)c1c(Cl)ccc(F)c1Cl [Crizotinib] + C=C(c1ccc(C(=O)O)cc1)c1cc2c(cc1C)C(C)(C)CCC2(C)C [Bexarotene] (first compound 0.2 µM, partner dose 2 µM) | 202 | 22.5 | 58.4 | 147 | 72.6 | 150 | 108 | 133 | 210 | 72.1 | 147 | 65.2 | 83.2 | 150 | 48.8 | 268 | 189 | 106 | 63.7

Another view of some results above.
Row	Structure (SMILES)	cleaved PARP positive nuclei fraction (501Mel) [%]	cleaved PARP positive nuclei fraction (A101D) [%]	cleaved PARP positive nuclei fraction (A2058) [%]	cleaved PARP positive nuclei fraction (A375) [%]	cleaved PARP positive nuclei fraction (C32) [%]	cleaved PARP positive nuclei fraction (CBRC008) [%]	cleaved PARP positive nuclei fraction (CBRC014) [%]	cleaved PARP positive nuclei fraction (CBRC016) [%]	cleaved PARP positive nuclei fraction (CBRC017) [%]	cleaved PARP positive nuclei fraction (CBRC034) [%]	cleaved PARP positive nuclei fraction (COLO792) [%]	cleaved PARP positive nuclei fraction (COLO800) [%]	cleaved PARP positive nuclei fraction (COLO829) [%]	cleaved PARP positive nuclei fraction (G361) [%]	cleaved PARP positive nuclei fraction (IPC-298) [%]	cleaved PARP positive nuclei fraction (IST-MEL1) [%]	cleaved PARP positive nuclei fraction (LB2518-MEL) [%]	cleaved PARP positive nuclei fraction (LOXIMVI) [%]	cleaved PARP positive nuclei fraction (MEL-HO) [%]
4	CNC(=O)c1cc(Oc2ccc(NC(=O)Nc3ccc(Cl)c(C(F)(F)F)c3)cc2)ccn1 [sorafenib] + CS(=O)(=O)CCNCc1ccc(-c2ccc3ncnc(Nc4ccc(OCc5cccc(F)c5)c(Cl)c4)c3c2)o1 [lapatinib] (first compound 0.4 µM, partner dose 0.8 µM)	101	80.7	139	247	73.5	167	122	70	136	37.6	82.9	164	63.4	113	94.1	85.7	110	77.8	116
11	Cn1c(=O)n(-c2ccc(C(C)(C)C#N)cc2)c2c3cc(-c4cnc5ccccc5c4)ccc3ncc21 + C[C@@H](Oc1cc(-c2cnn(C3CCNCC3)c2)cnc1N)c1c(Cl)ccc(F)c1Cl [Crizotinib] (first compound 0.004 µM, partner dose 0.2 µM)	159	58.6	79.8	210	132	64.5	101	100	109	66.6	53.4	142	83.4	229	81.9	71.8	61.1	85.2	173
14	Cn1c(=O)n(-c2ccc(C(C)(C)C#N)cc2)c2c3cc(-c4cnc5ccccc5c4)ccc3ncc21 + Nc1nc(F)nc2c1ncn2[C@@H]1O[C@H](CO)[C@@H](O)[C@@H]1O [fludarabine] (first compound 0.004 µM, partner dose 0.2 µM)	12000	310	22.5	4730	81.6	91.5	95.5	87.7	109	67.9	120	103	136	128	96.8	182	103	274	22.2
15	CC(C)C[C@H](NC(=O)[C@H](Cc1ccccc1)NC(=O)c1cnccn1)B(O)O [Bortezomib] + C#Cc1cccc(Nc2ncnc3cc(OCCOC)c(OCCOC)cc23)c1 [erlotinib] (first compound 0.001 µM, partner dose 0.8 µM)	272	866	359	113	88.4	964	260	428	719	452	39.4	178	213	6040	193	90.9	258	293	63
